Data reported in patent US20130230527A1 (University of California, published 2013).
These are yes or no findings as the source states them, for the method shown. Some results given as binding are weak or reduced against the parent protein; the word gives no strength.

Experiments:
[1] = biological target: T1, human epithelial membrane protein-2 (EMP2) on cells (human) (UniProt P54851); test: FACS on cells
T1 sequence (looked up): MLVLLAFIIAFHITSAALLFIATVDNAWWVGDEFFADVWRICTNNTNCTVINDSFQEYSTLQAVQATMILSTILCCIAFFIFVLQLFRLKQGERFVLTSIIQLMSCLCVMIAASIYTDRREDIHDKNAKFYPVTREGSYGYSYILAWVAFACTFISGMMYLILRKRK

[2] = biological target: T2, mouse epithelial membrane protein-2 (EMP2) on cells (mouse) (UniProt O88662); test: FACS on cells
T2 sequence (looked up): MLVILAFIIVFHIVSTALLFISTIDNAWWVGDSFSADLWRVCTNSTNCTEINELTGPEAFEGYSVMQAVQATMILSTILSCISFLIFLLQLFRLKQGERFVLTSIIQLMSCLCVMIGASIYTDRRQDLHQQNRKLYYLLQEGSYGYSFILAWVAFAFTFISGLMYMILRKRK

[3] = biological target: T2, mouse epithelial membrane protein-2 (EMP2) on cells (mouse); test: FACS on NIH 3T3 cells
[4] = biological target: T2, mouse epithelial membrane protein-2 (EMP2) on cells (mouse); test: flow cytometry on cells
[5] = biological target: T3, biotin conjugated 24 amino acid peptide of the extracellular loop of mouse EMP2 (mouse); test: ELISA on peptide-coated plates
T3 sequence (peptide, biotin conjugated (position not stated)): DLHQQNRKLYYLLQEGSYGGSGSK

[6] = biological target: T1, human epithelial membrane protein-2 (EMP2) on cells (human); test: FACS on RL95-2 and Ishikawa cells
[7] = biological target: T3, biotin conjugated 24 amino acid peptide of the extracellular loop of mouse EMP2 (mouse); test: ELISA on mEMP2 peptide, diabody format
[8] = biological target: T1, human epithelial membrane protein-2 (EMP2) on cells (human); test: statement in the results; method not given
[9] = biological target: T2, mouse epithelial membrane protein-2 (EMP2) on cells (mouse); test: statement in the results; method not given
[10] = biological target: T3, biotin conjugated 24 amino acid peptide of the extracellular loop of mouse EMP2 (mouse); test: ELISA against the specific peptide used to select the antibody
[11] = biological target: T1, human epithelial membrane protein-2 (EMP2) on cells (human); test: flow cytometry on cells

Measured: binding

B1: anti-EMP2 diabody KS83 (other)
chain: MAQVQLVESGGGLVQPGGSLRLSCAASGFTFSSYAMHWVRQAPGKGLEWVAVISYDGSNKYYADSVKGRFTISRDNSKNTLYLQMNSLRAEDTAVYYCARTVGATGAFDIWGQGTMVTVSSSSGGGSDIVMTQSPSTVSASVGDRVIIPCRASQSIGKWLAWYQQKPGKAPKLLIYKASSLEGWVPSRFSGSGSGTEFSLTISSLQPDDSATYVCQQSHNFPPTFGGGTKLEIKRAAAEQKLISEEDLNGAAHHHHHH
notes: Diabody: bivalent dimer of a VH-5 aa linker-VL chain with c-Myc and 6 His tags; Selected against the mEMP2 peptide; also called K83; diabody 83
not listed: [11]
binds: all other assays above

B2: anti-EMP2 diabody KS49 (other)
chain: MAQVQLVQSGGGVVQPGRSLRLSCAASGFTFSSYAMHWVRQAPGKGLEWVAVISYDGSNKYYADSVKGRFTISRDNSKNTLYLQMNSLRAEDTAVYYCARDRRGRKSAGIDYWGQGTLVTVSSSGGGSDIQMTQSPSSLSASVGDRVTITCQASQDISNYLNWYQQKPGKAPKLLIYAASSLQSGVPSRFSGSGSGTDFTLTISSLQPEDFATYYCLQDYNGWTFGQGTKVDIKRAAAEQKLISEEDLNGAAHHHHHH
notes: Diabody: bivalent dimer of a VH-5 aa linker-VL chain with c-Myc and 6 His tags, made in E. coli TG1; Selected against the hEMP2 peptide; also called K49; anti-hEMP2 diabody
not listed: [4] | [5] | [7] | [10]
binds: all other assays above
